Assay results as given in US20250215059A1.
Results are given in words; binding and its absence hold for the method and conditions named. Some binding calls cover weakened binding; strength is not graded here.

By UniProt entry, the sequences of proteins in these tests, tags left out. Where a name states a change or a piece, a line headed by the entry shows the natural chain unless it says otherwise.
UniProt Q9H307: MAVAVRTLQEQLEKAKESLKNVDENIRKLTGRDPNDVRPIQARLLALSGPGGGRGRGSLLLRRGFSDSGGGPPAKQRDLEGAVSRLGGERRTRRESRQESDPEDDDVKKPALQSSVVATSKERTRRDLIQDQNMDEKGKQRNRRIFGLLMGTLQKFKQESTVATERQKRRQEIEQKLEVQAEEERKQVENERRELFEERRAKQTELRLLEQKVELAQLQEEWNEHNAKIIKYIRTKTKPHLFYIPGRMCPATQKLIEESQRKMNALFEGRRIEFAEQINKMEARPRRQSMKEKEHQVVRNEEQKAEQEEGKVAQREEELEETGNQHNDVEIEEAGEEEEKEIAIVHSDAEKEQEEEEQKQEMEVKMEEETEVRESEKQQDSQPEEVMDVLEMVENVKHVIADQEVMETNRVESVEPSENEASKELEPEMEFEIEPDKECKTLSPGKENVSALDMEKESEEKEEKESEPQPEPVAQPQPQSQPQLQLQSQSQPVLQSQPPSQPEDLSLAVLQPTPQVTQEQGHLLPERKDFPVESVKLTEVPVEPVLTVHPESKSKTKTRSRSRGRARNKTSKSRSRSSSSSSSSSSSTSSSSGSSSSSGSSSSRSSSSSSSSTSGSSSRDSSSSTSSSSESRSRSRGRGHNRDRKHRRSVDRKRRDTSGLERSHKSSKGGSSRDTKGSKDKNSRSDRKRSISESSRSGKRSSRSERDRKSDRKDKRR
UniProt O15047: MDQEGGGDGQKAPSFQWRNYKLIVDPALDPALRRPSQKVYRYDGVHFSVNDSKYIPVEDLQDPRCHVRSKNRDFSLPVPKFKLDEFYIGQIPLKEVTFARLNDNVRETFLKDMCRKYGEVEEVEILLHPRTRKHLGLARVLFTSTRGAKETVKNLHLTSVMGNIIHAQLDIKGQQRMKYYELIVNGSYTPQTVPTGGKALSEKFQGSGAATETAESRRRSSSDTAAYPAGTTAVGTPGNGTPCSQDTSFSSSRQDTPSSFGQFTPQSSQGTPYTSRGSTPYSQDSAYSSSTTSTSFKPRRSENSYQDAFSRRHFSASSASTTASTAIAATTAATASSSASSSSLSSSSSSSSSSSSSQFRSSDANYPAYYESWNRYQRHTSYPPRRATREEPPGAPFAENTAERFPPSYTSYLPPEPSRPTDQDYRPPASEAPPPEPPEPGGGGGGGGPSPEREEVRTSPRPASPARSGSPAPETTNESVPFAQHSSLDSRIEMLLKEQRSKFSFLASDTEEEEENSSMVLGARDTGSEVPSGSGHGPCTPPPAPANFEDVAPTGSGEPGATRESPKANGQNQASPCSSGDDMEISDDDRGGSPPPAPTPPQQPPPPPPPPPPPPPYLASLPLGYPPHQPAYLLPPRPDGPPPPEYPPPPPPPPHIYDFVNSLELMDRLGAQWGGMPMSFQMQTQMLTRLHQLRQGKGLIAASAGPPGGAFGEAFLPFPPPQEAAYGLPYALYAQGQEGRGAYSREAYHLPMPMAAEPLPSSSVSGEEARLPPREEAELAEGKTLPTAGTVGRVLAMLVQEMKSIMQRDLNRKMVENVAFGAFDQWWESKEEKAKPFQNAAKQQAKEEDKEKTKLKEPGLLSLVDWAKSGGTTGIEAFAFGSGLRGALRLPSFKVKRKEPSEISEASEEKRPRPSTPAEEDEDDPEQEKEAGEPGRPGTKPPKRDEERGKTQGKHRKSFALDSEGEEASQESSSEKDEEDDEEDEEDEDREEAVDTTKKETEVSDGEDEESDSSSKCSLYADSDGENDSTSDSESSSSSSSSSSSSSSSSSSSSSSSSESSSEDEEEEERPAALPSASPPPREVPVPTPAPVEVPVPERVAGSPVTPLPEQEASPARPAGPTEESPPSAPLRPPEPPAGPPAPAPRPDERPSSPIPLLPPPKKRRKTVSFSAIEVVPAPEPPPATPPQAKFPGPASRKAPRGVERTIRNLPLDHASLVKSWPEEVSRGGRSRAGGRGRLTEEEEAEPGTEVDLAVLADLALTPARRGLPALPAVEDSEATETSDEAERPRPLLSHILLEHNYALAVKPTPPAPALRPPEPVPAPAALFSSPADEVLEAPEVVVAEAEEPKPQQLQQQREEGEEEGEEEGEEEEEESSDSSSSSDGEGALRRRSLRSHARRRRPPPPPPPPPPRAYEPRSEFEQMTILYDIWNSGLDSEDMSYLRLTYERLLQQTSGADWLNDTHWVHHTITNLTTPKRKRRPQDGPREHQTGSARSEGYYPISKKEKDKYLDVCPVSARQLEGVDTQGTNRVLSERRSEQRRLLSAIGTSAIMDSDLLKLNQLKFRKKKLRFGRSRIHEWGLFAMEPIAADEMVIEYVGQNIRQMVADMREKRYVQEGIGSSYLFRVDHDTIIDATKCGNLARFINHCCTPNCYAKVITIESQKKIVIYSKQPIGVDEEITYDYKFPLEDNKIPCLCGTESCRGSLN

Key:
[1] = biological target: tau aggregates in HEK293 tau biosensor cells (4R repeat domain of tau (K18) with the P301S mutation fused to CFP or YFP, seeded with clarified tau mouse brain homogenate) (UniProt P10636); experiment: immunofluorescence
[2] = biological target: tau aggregates in HEK293 tau biosensor cells (4R repeat domain of tau (K18) with the P301S mutation fused to CFP or YFP, seeded with clarified tau mouse brain homogenate) (UniProt P10636); experiment: immunofluorescence image
[3] = biological target: tau aggregates in HEK293 tau biosensor cells (4R repeat domain of tau (K18) with the P301S mutation fused to CFP or YFP, seeded with clarified tau mouse brain homogenate) (UniProt P10636); experiment: immunofluorescence in HEK293 tau biosensor cells

Measured: binding

PNN (Pinin), endogenous in HEK293 tau biosensor cells (from UniProt Q9H307 2-717)
binds: all assays above

SETD1A, endogenous in HEK293 tau biosensor cells (from UniProt O15047 1-1707)
binds: all assays above
